# From the supplement of paper PMC10849652
# Sequences of proteins named here, by UniProt entry; tags and fusion partners are left off. A change or cut given only in a name is not applied to a line headed by its entry.
# UniProt Q8TCT8: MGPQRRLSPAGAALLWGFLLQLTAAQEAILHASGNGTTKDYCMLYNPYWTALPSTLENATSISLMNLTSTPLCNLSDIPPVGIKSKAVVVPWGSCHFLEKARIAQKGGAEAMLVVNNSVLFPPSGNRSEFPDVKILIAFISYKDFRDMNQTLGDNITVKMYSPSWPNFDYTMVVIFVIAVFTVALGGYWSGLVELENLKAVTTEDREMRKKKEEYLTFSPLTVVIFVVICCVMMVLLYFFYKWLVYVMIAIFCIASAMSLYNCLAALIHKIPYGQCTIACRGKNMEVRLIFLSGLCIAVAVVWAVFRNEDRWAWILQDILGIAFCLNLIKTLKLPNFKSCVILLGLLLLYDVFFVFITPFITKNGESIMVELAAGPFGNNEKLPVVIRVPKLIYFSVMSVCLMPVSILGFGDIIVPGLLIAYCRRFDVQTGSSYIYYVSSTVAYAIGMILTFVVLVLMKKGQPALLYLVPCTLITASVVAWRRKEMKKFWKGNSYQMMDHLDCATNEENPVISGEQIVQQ
# UniProt Q8N3U4: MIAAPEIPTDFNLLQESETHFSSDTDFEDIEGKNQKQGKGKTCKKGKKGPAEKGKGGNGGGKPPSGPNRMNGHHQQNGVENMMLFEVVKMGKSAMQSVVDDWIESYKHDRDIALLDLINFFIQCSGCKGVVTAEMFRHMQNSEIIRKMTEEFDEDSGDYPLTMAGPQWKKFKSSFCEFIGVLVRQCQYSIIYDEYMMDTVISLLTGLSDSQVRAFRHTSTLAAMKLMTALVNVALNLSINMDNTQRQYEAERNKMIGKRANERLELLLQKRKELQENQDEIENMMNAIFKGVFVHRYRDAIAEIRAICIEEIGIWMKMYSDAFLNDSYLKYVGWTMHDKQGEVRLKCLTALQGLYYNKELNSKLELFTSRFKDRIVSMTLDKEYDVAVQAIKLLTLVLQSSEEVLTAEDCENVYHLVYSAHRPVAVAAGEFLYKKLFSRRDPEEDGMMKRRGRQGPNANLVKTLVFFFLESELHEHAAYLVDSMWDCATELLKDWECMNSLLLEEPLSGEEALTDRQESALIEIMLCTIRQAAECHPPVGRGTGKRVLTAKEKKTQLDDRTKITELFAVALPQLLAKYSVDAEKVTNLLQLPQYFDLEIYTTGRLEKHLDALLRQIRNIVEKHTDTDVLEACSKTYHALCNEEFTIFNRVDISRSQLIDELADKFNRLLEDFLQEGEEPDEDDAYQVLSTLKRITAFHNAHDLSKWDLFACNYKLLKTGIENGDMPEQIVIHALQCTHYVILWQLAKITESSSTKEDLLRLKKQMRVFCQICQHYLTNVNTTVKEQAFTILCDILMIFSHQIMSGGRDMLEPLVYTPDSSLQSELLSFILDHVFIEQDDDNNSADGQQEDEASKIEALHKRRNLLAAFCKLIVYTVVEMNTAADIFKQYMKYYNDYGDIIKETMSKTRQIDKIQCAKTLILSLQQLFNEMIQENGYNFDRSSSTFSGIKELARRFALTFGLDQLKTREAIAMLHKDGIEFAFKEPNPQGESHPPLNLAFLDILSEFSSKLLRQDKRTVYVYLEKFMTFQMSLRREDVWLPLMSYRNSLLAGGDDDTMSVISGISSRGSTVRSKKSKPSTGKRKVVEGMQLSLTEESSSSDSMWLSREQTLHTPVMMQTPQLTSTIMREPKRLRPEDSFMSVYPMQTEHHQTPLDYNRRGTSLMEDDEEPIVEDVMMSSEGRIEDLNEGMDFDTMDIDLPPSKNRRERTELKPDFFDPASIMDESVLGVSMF
# UniProt O95793: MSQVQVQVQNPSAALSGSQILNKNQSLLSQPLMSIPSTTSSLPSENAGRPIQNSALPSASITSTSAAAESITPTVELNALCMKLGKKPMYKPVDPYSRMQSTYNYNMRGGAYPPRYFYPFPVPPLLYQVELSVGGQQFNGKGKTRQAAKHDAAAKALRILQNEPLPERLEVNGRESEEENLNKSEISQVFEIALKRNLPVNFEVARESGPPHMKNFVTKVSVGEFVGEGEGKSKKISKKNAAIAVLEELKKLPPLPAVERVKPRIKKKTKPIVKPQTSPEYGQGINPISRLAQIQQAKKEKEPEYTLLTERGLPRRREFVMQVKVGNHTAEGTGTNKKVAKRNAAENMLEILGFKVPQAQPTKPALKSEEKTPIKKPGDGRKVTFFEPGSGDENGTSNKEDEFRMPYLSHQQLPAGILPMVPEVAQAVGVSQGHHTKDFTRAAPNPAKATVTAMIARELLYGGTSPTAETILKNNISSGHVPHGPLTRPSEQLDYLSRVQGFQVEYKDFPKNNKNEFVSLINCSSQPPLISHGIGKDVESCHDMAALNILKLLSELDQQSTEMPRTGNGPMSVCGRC
# UniProt Q12772: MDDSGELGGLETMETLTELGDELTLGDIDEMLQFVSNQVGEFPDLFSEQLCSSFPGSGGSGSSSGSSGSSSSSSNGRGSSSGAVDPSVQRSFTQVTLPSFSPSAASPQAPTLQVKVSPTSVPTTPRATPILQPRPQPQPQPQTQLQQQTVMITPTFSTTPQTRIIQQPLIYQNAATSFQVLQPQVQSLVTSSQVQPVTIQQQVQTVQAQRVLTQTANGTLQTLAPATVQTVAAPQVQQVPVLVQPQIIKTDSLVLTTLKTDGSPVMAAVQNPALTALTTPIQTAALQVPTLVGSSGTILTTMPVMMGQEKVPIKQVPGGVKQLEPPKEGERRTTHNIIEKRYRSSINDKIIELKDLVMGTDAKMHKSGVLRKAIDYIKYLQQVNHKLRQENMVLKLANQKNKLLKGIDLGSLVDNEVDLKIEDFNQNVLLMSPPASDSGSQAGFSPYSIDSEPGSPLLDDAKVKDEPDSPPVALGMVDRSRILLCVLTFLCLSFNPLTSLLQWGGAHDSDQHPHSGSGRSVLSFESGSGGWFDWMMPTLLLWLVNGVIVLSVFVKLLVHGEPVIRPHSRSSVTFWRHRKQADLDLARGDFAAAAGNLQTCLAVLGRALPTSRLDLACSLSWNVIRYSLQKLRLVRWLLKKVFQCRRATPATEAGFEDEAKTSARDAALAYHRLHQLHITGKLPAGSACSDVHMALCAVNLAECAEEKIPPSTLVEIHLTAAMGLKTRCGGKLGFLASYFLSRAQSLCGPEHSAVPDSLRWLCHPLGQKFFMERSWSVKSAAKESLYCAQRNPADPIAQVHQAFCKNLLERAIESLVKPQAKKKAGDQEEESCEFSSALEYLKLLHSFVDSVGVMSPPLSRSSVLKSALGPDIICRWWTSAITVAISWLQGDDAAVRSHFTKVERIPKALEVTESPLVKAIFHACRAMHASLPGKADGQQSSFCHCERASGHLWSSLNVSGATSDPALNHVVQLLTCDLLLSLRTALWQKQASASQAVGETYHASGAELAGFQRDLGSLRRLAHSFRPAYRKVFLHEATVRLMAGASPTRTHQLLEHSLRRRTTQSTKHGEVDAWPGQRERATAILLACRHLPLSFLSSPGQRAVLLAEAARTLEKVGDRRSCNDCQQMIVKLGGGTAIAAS
# UniProt Q9NUL3: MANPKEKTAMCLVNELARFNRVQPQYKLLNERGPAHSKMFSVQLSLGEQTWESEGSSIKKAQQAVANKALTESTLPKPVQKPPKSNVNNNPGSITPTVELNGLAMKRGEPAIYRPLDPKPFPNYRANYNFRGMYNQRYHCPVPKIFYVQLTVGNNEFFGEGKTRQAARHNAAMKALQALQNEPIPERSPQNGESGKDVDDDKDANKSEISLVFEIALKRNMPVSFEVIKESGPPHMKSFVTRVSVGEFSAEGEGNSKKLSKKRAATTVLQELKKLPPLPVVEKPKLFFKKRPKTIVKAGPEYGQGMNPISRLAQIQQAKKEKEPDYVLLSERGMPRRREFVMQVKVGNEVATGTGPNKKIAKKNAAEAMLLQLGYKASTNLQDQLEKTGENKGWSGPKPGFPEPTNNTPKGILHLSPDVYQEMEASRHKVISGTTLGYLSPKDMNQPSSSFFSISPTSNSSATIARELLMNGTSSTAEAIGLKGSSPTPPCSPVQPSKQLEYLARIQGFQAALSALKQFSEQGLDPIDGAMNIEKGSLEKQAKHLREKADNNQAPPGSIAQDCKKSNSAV
# UniProt Q9NP77: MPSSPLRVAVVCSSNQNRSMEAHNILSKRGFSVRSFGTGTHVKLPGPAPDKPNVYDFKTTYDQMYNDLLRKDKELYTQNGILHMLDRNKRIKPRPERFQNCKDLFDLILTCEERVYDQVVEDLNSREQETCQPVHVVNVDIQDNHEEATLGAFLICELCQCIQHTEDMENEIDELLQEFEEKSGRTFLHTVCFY
# UniProt Q8TCT7: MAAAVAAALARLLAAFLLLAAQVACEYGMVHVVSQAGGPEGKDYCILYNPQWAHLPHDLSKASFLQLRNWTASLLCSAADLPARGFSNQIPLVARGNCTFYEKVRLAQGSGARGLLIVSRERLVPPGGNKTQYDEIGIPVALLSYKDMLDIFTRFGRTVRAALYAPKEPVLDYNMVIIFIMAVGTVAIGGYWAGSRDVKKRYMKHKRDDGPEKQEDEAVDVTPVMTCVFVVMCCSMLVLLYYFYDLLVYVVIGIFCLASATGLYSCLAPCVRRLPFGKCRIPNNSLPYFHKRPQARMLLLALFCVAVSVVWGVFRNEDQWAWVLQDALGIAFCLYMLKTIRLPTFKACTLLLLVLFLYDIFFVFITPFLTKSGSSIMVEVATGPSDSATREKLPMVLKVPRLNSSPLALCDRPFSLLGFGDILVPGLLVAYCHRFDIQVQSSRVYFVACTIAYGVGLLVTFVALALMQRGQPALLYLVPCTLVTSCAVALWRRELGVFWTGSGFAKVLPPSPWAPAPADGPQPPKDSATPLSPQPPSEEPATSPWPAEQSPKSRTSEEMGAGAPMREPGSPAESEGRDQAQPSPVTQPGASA
# UniProt P42224: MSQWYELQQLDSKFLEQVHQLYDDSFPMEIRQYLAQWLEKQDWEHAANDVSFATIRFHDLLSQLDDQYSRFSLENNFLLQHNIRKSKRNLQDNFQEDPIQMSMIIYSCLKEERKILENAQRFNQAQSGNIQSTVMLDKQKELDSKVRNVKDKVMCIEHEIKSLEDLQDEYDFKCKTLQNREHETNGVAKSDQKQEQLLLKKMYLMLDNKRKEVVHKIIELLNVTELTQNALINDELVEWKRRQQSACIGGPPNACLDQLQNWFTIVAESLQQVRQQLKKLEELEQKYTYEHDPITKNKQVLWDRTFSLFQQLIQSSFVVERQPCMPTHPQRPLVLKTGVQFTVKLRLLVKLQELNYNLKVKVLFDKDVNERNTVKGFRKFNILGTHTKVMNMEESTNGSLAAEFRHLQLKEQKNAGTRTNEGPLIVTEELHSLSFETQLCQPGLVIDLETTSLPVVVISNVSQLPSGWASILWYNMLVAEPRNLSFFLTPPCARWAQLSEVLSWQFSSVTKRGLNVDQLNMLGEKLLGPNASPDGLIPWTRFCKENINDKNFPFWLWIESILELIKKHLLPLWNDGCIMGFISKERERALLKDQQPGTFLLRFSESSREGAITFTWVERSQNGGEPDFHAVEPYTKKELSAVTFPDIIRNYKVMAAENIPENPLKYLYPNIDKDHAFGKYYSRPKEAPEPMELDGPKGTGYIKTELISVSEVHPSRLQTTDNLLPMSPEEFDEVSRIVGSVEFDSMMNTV
# UniProt Q9NRC1: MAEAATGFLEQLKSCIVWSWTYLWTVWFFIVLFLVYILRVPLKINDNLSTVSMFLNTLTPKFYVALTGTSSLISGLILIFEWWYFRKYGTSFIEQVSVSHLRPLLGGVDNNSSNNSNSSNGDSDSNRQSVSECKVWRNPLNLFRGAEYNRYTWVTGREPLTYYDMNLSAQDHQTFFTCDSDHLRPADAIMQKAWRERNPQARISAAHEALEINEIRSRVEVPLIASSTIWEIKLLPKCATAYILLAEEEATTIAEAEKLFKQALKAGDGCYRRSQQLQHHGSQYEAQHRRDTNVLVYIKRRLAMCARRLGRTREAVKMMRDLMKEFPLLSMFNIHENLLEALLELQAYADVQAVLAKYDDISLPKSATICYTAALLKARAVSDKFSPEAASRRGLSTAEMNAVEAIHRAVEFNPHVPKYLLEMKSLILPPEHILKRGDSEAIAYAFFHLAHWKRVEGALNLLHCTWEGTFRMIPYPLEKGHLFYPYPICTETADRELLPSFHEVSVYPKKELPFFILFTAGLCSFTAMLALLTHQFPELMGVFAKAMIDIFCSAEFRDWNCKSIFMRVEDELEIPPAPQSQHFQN
# UniProt P61647: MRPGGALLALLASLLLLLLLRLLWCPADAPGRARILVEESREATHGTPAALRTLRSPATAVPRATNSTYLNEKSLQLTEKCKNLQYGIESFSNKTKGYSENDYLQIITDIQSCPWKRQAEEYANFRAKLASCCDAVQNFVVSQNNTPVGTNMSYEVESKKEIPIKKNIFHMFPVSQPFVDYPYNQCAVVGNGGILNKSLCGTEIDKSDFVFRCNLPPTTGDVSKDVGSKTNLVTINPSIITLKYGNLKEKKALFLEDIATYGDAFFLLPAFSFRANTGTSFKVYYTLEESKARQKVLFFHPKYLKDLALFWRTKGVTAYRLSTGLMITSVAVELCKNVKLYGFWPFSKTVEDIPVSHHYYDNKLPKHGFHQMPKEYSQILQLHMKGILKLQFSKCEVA
# This is one part of the list.
# Assays:
# Experiment in all cases: log2 fold change, soluble protein after heating vs DMSO (PISA); higher = thermal stabilisation; K562 cells, 10 uM, 30 min; active = over 0.2 and 3.5 SD of the protein, either way, in both replicates (recomputed)
# [1] = compound: COC1=CC=C(C=C1)CN2C=CC3=C2C=C(C=C3)C(=O)NO
# Method in brief: (§1)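 K562 cells (2×10^6 cells/mL) were treated with 10 μM compound for 30 min, and aliquots were heated for 3 min over 48°C-58°C. Pooled aliquots were extracted in PBS with 0.5% NP-40 at 4°C, and the supernatant after 21,000xg for 90 min was measured by TMTpro 16plex LC-MS/MS with channel sums equalised. Reported thermal stability, relative to control samples and from duplicates, is a log2 fold change.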
# filanesib = compound: CON(C)C(=O)N1N=C(c2cc(F)ccc2F)S[C@@]1(CCCN)c1ccccc1 [filanesib]
# Method in brief: as §1
# zotarolimus = compound: CO[C@H]1C[C@@H]2CC[C@@H](C)[C@@](O)(O2)C(=O)C(=O)N2CCCC[C@H]2C(=O)O[C@H]([C@H](C)C[C@@H]2CC[C@H](n3cnnn3)[C@H](OC)C2)CC(=O)[C@H](C)/C=C(\C)[C@@H](O)[C@@H](OC)C(=O)[C@H](C)C[C@H](C)/C=C/C=C/C=C/1C [zotarolimus]
# Method in brief: as §1
# idasanutlin = compound: COc1cc(C(=O)O)ccc1NC(=O)[C@@H]1N[C@@H](CC(C)(C)C)[C@](C#N)(c2ccc(Cl)cc2F)[C@H]1c1cccc(Cl)c1F [idasanutlin]
# Method in brief: as §1
# alisertib = compound: COc1cc(Nc2ncc3c(n2)-c2ccc(Cl)cc2C(c2c(F)cccc2OC)=NC3)ccc1C(=O)O [alisertib]
# Method in brief: as §1
# [2] = compound: COc1cc2nc(-c3cc(F)ccc3O)nc(N[C@@H]3CNC[C@H]3C(C)(C)O)c2cc1OC
# Method in brief: as §1
# gefitinib = compound: COc1cc2ncnc(Nc3ccc(F)c(Cl)c3)c2cc1OCCCN1CCOCC1 [gefitinib]
# Method in brief: as §1
# [3] = compound: COc1cccc2cc(-c3nc([C@H]4CC[C@H](C(=O)O)CC4)n4ncnc(N)c34)[nH]c12
# Method in brief: as §1
# lapatinib = compound: CS(=O)(=O)CCNCc1ccc(-c2ccc3ncnc(Nc4ccc(OCc5cccc(F)c5)c(Cl)c4)c3c2)o1 [lapatinib]
# Method in brief: as §1
# pictilisib = compound: CS(=O)(=O)N1CCN(Cc2cc3nc(-c4cccc5[nH]ncc45)nc(N4CCOCC4)c3s2)CC1 [pictilisib]
# Method in brief: as §1
Target,log2 fold change [1],log2 fold change (filanesib),log2 fold change (zotarolimus),log2 fold change (idasanutlin),log2 fold change (alisertib),log2 fold change [2],log2 fold change (gefitinib),log2 fold change [3],log2 fold change (lapatinib),log2 fold change (pictilisib)
SPATA5 (UniProt Q8NB90),inactive: -0.004,inactive: 0.046,inactive: -0.014,inactive: -0.008,inactive: -0.042,inactive: 0.012,inactive: -0.002,inactive: 0.006,inactive: 0,inactive: 0
SRR (UniProt Q9GZT4),inactive: 0.051,inactive: -0.201,–,inactive: 0.004,inactive: 0.011,inactive: 0,inactive: -0.022,inactive: 0.103,inactive: 0.003,inactive: -0.003
SPPL2A (UniProt Q8TCT8),inactive: -0.061,inactive: -0.059,inactive: -0.064,inactive: 0.078,inactive: -0.06,inactive: -0.047,–,inactive: 0.129,inactive: 0.003,inactive: -0.011
STAG2 (UniProt Q8N3U4),inactive: 0.108,inactive: 0.023,inactive: 0.003,inactive: -0.008,inactive: -0.01,inactive: 0.007,inactive: 0.026,inactive: 0.02,inactive: -0.012,inactive: 0.027
SRRM2 (UniProt Q9UQ35),inactive: 0.018,inactive: 0.097,inactive: 0.05,inactive: 0.166,inactive: -0.121,inactive: -0.293,inactive: 0.018,inactive: 0.028,inactive: 0.01,inactive: 0.117
STAU1 (UniProt O95793),inactive: -0.075,inactive: 0.441,inactive: 0.029,inactive: 0.227,inactive: -0.114,inactive: 0.02,inactive: -0.055,inactive: -0.264,inactive: 0.166,inactive: -0.082
SREBF2 (UniProt Q12772),inactive: -0.077,inactive: 0.07,–,–,inactive: 0.653,–,inactive: -0.04,inactive: 0.04,–,–
STAU2 (UniProt Q9NUL3),inactive: 0.008,inactive: 0.377,inactive: 0.084,inactive: 0.242,inactive: 0.158,inactive: 0.205,–,inactive: -0.221,inactive: -0.137,inactive: 0.016
SSU72 (UniProt Q9NP77),inactive: 0.036,inactive: -0.009,inactive: 0.069,inactive: -0.015,inactive: 0.161,inactive: 0.044,–,inactive: 0.19,inactive: -0.073,inactive: 0.12
SPPL2B (UniProt Q8TCT7),inactive: 0.025,inactive: -0.223,inactive: -0.016,inactive: -0.01,inactive: -0.113,inactive: -0.05,inactive: -0.061,inactive: 0.084,inactive: -0.002,active: 0.292
STAT1 (UniProt P42224),inactive: -0.155,inactive: 0.376,inactive: 0.076,inactive: -0.033,inactive: 0.03,inactive: -0.13,inactive: -0.014,inactive: -0.202,inactive: 0.172,inactive: -0.035
ST7 (UniProt Q9NRC1),inactive: 0.01,inactive: 0.018,inactive: -0.014,inactive: -0.029,inactive: -0.101,inactive: -0.063,inactive: 0.051,inactive: -0.016,inactive: -0.072,inactive: -0.037
SPIRE2 (UniProt Q8WWL2),inactive: -0.217,inactive: 0.104,inactive: -0.405,–,–,–,–,–,–,inactive: 0.139
SRCAP (UniProt Q6ZRS2),inactive: -0.083,inactive: 0.097,inactive: -0.02,–,inactive: -0.091,inactive: -0.067,inactive: 0.198,inactive: 0.062,inactive: 0.049,inactive: 0.015
STAT5B (UniProt P51692),inactive: 0.13,inactive: -0.036,inactive: 0.112,inactive: 0.086,inactive: -0.038,inactive: -0.115,inactive: 0.046,inactive: -0.094,inactive: 0.029,inactive: -0.148
ST8SIA6 (UniProt P61647),inactive: -0.244,inactive: -0.031,–,inactive: 0.152,–,–,–,–,–,inactive: -0.03
SPNS1 (UniProt Q9H2V7),inactive: 0.02,inactive: -0.057,inactive: -0.039,inactive: -0.081,inactive: -0.058,inactive: 0.104,inactive: -0.002,inactive: 0.045,inactive: 0.032,inactive: 0.02

# Reprinted at random: 2 records from the list.
Target,log2 fold change [1],log2 fold change (filanesib),log2 fold change (zotarolimus),log2 fold change (idasanutlin),log2 fold change (alisertib),log2 fold change [2],log2 fold change (gefitinib),log2 fold change [3],log2 fold change (lapatinib),log2 fold change (pictilisib)
SSU72 (UniProt Q9NP77),inactive: 0.036,inactive: -0.009,inactive: 0.069,inactive: -0.015,inactive: 0.161,inactive: 0.044,–,inactive: 0.19,inactive: -0.073,inactive: 0.12
SPNS1 (UniProt Q9H2V7),inactive: 0.02,inactive: -0.057,inactive: -0.039,inactive: -0.081,inactive: -0.058,inactive: 0.104,inactive: -0.002,inactive: 0.045,inactive: 0.032,inactive: 0.02
